Values from PubChem BioAssay AID1259254 (NCATS, 2017).
Test: 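Genome-wide screen for genes that prevent DNA re-replication in cancer cells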 (primary screen). Cell system: human HCT116 colorectal cancer cells. Reagent: single siRNA against human genes. Timing: 3 days. Read-out: 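Nuclei stained with Hoechst and imaged; cell-cycle phase assigned by DNA content; G2 share scaled per plate, non-targeting siRNA 0%, GMNN siRNA 100%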. Reading the numbers: G2 robust z-score and G2 cells, % of GMNN control: higher = more G2 cells, more excess DNA replication. Call rule: 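An siRNA counts as active if its G2 robust z-score lies at least 5 MADs above the screen median; here such calls match roughly 38% of GMNN control or more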.
This is one part, drawn at random, of about 59,000 deposited reagents. Over the whole deposit, about 1,550 (2.6%) got an active call. 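G2 share is only a proxy for re-replication; each gene was hit by three separate siRNAs, and active genes were retested.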 Reagents against one gene are numbered here. Further read-outs or replicates are left out here. No sequences are given here. The record does not give: the amount of reagent.

{"target": "NAXE", "reagent": 1, "G2 robust z-score": 1.4, "G2 cells, % of GMNN control": 12.9, "activity call": "inactive"}
{"target": "NAXE", "reagent": 2, "G2 robust z-score": 1.96, "G2 cells, % of GMNN control": 16.8, "activity call": "inactive"}
{"target": "NAXE", "reagent": 3, "G2 robust z-score": -0.658, "G2 cells, % of GMNN control": -1.67, "activity call": "inactive"}
{"target": "RBBP8NL", "reagent": 1, "G2 robust z-score": -0.574, "G2 cells, % of GMNN control": -1.07, "activity call": "inactive"}
{"target": "RBBP8NL", "reagent": 2, "G2 robust z-score": -1.22, "G2 cells, % of GMNN control": -5.65, "activity call": "inactive"}
{"target": "RBBP8NL", "reagent": 3, "G2 robust z-score": 0.263, "G2 cells, % of GMNN control": 4.82, "activity call": "inactive"}
{"target": "TMEM223", "reagent": 1, "G2 robust z-score": 2.12, "G2 cells, % of GMNN control": 17.9, "activity call": "inactive"}
{"target": "TMEM223", "reagent": 2, "G2 robust z-score": 0.0389, "G2 cells, % of GMNN control": 3.24, "activity call": "inactive"}
{"target": "TMEM223", "reagent": 3, "G2 robust z-score": -0.532, "G2 cells, % of GMNN control": -0.777, "activity call": "inactive"}
{"target": "PWWP3B", "reagent": 1, "G2 robust z-score": -0.995, "G2 cells, % of GMNN control": -4.03, "activity call": "inactive"}
{"target": "PWWP3B", "reagent": 2, "G2 robust z-score": -0.475, "G2 cells, % of GMNN control": -0.377, "activity call": "inactive"}
{"target": "PWWP3B", "reagent": 3, "G2 robust z-score": 0.284, "G2 cells, % of GMNN control": 4.97, "activity call": "inactive"}
{"target": "IFT122P3", "reagent": 1, "G2 robust z-score": -0.777, "G2 cells, % of GMNN control": -2.5, "activity call": "inactive"}
{"target": "IFT122P3", "reagent": 2, "G2 robust z-score": 2.24, "G2 cells, % of GMNN control": 18.7, "activity call": "inactive"}
{"target": "IFT122P3", "reagent": 3, "G2 robust z-score": -0.682, "G2 cells, % of GMNN control": -1.83, "activity call": "inactive"}
{"target": "TRPC5", "reagent": 1, "G2 robust z-score": -0.351, "G2 cells, % of GMNN control": 0.499, "activity call": "inactive"}
{"target": "TRPC5", "reagent": 2, "G2 robust z-score": 2.63, "G2 cells, % of GMNN control": 21.5, "activity call": "inactive"}
{"target": "TRPC5", "reagent": 3, "G2 robust z-score": 3.81, "G2 cells, % of GMNN control": 29.8, "activity call": "inactive"}
{"target": "IGHV4OR15-8", "reagent": 1, "G2 robust z-score": -0.242, "G2 cells, % of GMNN control": 1.26, "activity call": "inactive"}
{"target": "IGHV4OR15-8", "reagent": 2, "G2 robust z-score": 2.32, "G2 cells, % of GMNN control": 19.3, "activity call": "inactive"}
{"target": "IGHV4OR15-8", "reagent": 3, "G2 robust z-score": -0.732, "G2 cells, % of GMNN control": -2.19, "activity call": "inactive"}
{"target": "TMEM144", "reagent": 1, "G2 robust z-score": -0.767, "G2 cells, % of GMNN control": -2.43, "activity call": "inactive"}
{"target": "TMEM144", "reagent": 2, "G2 robust z-score": 3.55, "G2 cells, % of GMNN control": 28, "activity call": "inactive"}
{"target": "TMEM144", "reagent": 3, "G2 robust z-score": 5.8, "G2 cells, % of GMNN control": 43.7, "activity call": "active"}
